{"source": "the supplement of paper PMC5949888", "note": "Most values lie at the floor of the assay. Slopes are relative: functional sequences can read slightly below zero.", "data": [{"system": "Saccharomyces cerevisiae PS128 hsf1 delta, HSF1(1-493) fusion", "assay": "growth estimate (transactivation domain function in HSF1 fusion, heat-shock survival) (a.u. (slope of normalised read count over time)); higher = stronger growth at 37°C, i.e. more transactivation activity", "details": "library: random library", "method": "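Random 60-nt DNA library encoding peptides of up to 20 aa, fused to the C-terminus of yeast HSF1 residues 1-493 (C-terminal TAD deleted) and expressed from the native HSF1 promoter on a CEN plasmid in hsf1-deleted S. cerevisiae PS128. Cells were selected at 37°C on -trp 5-FOA plates for 0, 2, 4, 6 and 8 days and amplicons were sequenced. Growth estimate is the slope of a robust linear fit of total-sum-normalised read counts (normalised to the first time point) over time, using at least 2 replicates. Sequences are classed functional (TAD activity) above a threshold of -0.13, set from stop-codon control sequences.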", "values": [{"substance": "IASPVACYPRVSLK", "growth estimate": "< -0.25"}, {"substance": "FVGESYVRVKARGKKRTIKS", "growth estimate": "< -0.25"}, {"substance": "MYQVTDYWVYGGGCKSPHPK", "growth estimate": "< -0.25"}, {"substance": "RSETFQHRCCL", "growth estimate": "< -0.25"}, {"substance": "VGTLTVVW", "growth estimate": -0.245}, {"substance": "AVTQGLWTPRAGAA", "growth estimate": "< -0.25"}, {"substance": "HCLVSTDGPHPFRQADPRQ", "growth estimate": "< -0.25"}, {"substance": "IGFEIVSGFDLSVRWVVASG", "growth estimate": "< -0.25"}, {"substance": "TLRGERICNQRSY", "growth estimate": "< -0.25"}, {"substance": "RLTRPVSVGGWIQRFLNRHA", "growth estimate": "< -0.25"}, {"substance": "SPTWFRQAYFVRRVLKLTVT", "growth estimate": "< -0.25"}, {"substance": "NLGGAFWGCTKSYVNCSYGY", "growth estimate": "< -0.25"}, {"substance": "KVSTH", "growth estimate": "< -0.25"}, {"substance": "VLPGCAASGEL", "growth estimate": "< -0.25"}, {"substance": "PWGTSVTGWRGPDGVILGQR", "growth estimate": "< -0.25"}, {"substance": "VLPTNLRERKGPIRV", "growth estimate": "< -0.25"}, {"substance": "TPSSELWSYPVGFTRNRSLL", "growth estimate": "< -0.25"}, {"substance": "VEVRFFGGAAQLNVL", "growth estimate": "< -0.25"}, {"substance": "LPRVGQVQRNQPSPGCLADS", "growth estimate": "< -0.25"}, {"substance": "TPLGRAGY", "growth estimate": "< -0.25"}, {"substance": "ISGYAPHMHRTEARGRHVRR", "growth estimate": "< -0.25"}, {"substance": "SGRSLQRSCIFFS", "growth estimate": "< -0.25"}, {"substance": "RCFQLLHALA", "growth estimate": "< -0.25"}, {"substance": "HDSALHSYRDEDLTGGRSLG", "growth estimate": "< -0.25"}, {"substance": "LWDSRFTRGRRNALSQVR", "growth estimate": "< -0.25"}, {"substance": "RKVAPFRSSGCLGEVKRAFA", "growth estimate": "< -0.25"}, {"substance": "GGRLTTDRY", "growth estimate": -0.239}, {"substance": "IWVQSNA", "growth estimate": "< -0.25"}, {"substance": "VCPSKLREGTRGF", "growth estimate": "< -0.25"}, {"substance": "SEQPDGLSQEGARRVSPLAW", "growth estimate": "< -0.25"}, {"substance": "KIQKTDGDHTLSSRNLGGAM", "growth estimate": -0.222}, {"substance": "VPAKPLQKAGYPPCESTTTP", "growth estimate": "< -0.25"}, {"substance": "SMLDMNMPQSWGRPIPLGRW", "growth estimate": "< -0.25"}, {"substance": "YAFG", "growth estimate": "< -0.25"}, {"substance": "HSCTLKFAMRIGPHLVCESH", "growth estimate": "< -0.25"}, {"substance": "DKLYFEGTRFASSRDG", "growth estimate": "< -0.25"}, {"substance": "SGICTPDGWTYGT", "growth estimate": "< -0.25"}, {"substance": "TRDDLP", "growth estimate": "< -0.25"}, {"substance": "VSTSALKLMLSHHV", "growth estimate": "< -0.25"}, {"substance": "ALNGHRSGEYNPRGNSHSRL", "growth estimate": "< -0.25"}, {"substance": "SCKACSTQIY", "growth estimate": "< -0.25"}, {"substance": "GLAQD", "growth estimate": "< -0.25"}, {"substance": "GQSTGPFTCTIANFLSGLA", "growth estimate": "< -0.25"}, {"substance": "DVKPRNSLIHC", "growth estimate": "< -0.25"}, {"substance": "QMYRQSPAFAAKSDSIG", "growth estimate": "< -0.25"}, {"substance": "ALNTTPL", "growth estimate": "< -0.25"}, {"substance": "VIERDYHGHCMTCHVL", "growth estimate": "< -0.25"}, {"substance": "FALDYVGRLQAVR", "growth estimate": -0.243}, {"substance": "GHSEVV", "growth estimate": "< -0.25"}, {"substance": "IDLRAYRCNADARRLRHYHC", "growth estimate": "< -0.25"}, {"substance": "ELDF", "growth estimate": "< -0.25"}, {"substance": "HDPKPGSALIRLLKVIDITV", "growth estimate": "< -0.25"}, {"substance": "GKGRGTRVLVKRR", "growth estimate": "< -0.25"}, {"substance": "FDIDESWTMTGTKQGGV", "growth estimate": "< -0.25"}, {"substance": "RPWGKRSEVYYSDLSGVAMA", "growth estimate": "< -0.25"}, {"substance": "VRHDIS", "growth estimate": "< -0.25"}, {"substance": "DGQDCVITARFPSALTLCV", "growth estimate": "< -0.25"}, {"substance": "HPVIIPGHSIRRLDG", "growth estimate": "< -0.25"}, {"substance": "DYVANETAQTLRQEASGLKP", "growth estimate": "< -0.25"}, {"substance": "QVDRAVLGRGIFYSPALTIS", "growth estimate": "< -0.25"}, {"substance": "IGLVYEYPGLVYRAEFW", "growth estimate": "< -0.25"}, {"substance": "TPPGDPRKPFNGSGRIT", "growth estimate": "< -0.25"}, {"substance": "KRRLSGQT", "growth estimate": "< -0.25"}, {"substance": "RLNGVKADGAIRAEDVLGHN", "growth estimate": "< -0.25"}, {"substance": "ARGIES", "growth estimate": "< -0.25"}, {"substance": "SAGRQLTLSTFAPN", "growth estimate": "< -0.25"}, {"substance": "RVHIISTSTYWSVWPYFN", "growth estimate": "< -0.25"}, {"substance": "LGCLLAGAPFCDPDMSGIVG", "growth estimate": "< -0.25"}, {"substance": "LPDH", "growth estimate": "< -0.25"}, {"substance": "RWSAT", "growth estimate": "< -0.25"}, {"substance": "HGRMLNLHGQSGGMKAWVSH", "growth estimate": "< -0.25"}, {"substance": "VFSFEPQFSGRALIGWLDLL", "growth estimate": "< -0.25"}, {"substance": "PAL", "growth estimate": "< -0.25"}, {"substance": "VNKYKLGRRGLKEEPGVGGP", "growth estimate": "< -0.25"}, {"substance": "VWHTRTQRVSSKYWDCPPVT", "growth estimate": "< -0.25"}, {"substance": "SACALGQRRGSRYAGDGGSA", "growth estimate": "< -0.25"}, {"substance": "LLTVVWCFDDDLRLLLRT", "growth estimate": "< -0.25"}, {"substance": "HIPTIVRIYCLIPLLFTVSV", "growth estimate": "< -0.25"}, {"substance": "LFRRATFSIKCDQSS", "growth estimate": "< -0.25"}, {"substance": "RIVATAAIPTAAEMVGSFPG", "growth estimate": "< -0.25"}, {"substance": "QAVLDCVSVLLAKI", "growth estimate": "< -0.25"}, {"substance": "CEGLV", "growth estimate": "< -0.25"}, {"substance": "IVPRVMPARPVRMV", "growth estimate": "< -0.25"}, {"substance": "SGGAGRRVMYQKATSDIRVR", "growth estimate": "< -0.25"}, {"substance": "RVVPIRAEYTSNART", "growth estimate": "< -0.25"}, {"substance": "SYHFKSKACSGVFRIRLGYA", "growth estimate": "< -0.25"}, {"substance": "ACGGDIHVYRVLHGGCARGP", "growth estimate": "< -0.25"}, {"substance": "SGNICSSHRSVSLWRIRIDR", "growth estimate": "< -0.25"}, {"substance": "VFKTHYTNQGCLTFIRSLPD", "growth estimate": -0.243}, {"substance": "SFSAALELPRLIAHR", "growth estimate": "< -0.25"}, {"substance": "QGLQVLTDSFLRAS", "growth estimate": "< -0.25"}, {"substance": "VARENVLLPLKRNLLEALNG", "growth estimate": "< -0.25"}, {"substance": "ILLEQSG", "growth estimate": "< -0.25"}, {"substance": "LTSKWAGKLVQPAMPGTQRN", "growth estimate": "< -0.25"}]}]}
